Some of the results follow.
Assays:
Assay in all cases: log2 fold change, soluble protein after heating vs DMSO (PISA); higher = thermal stabilisation; K562 lysate, 10 uM; active = over 0.2 and 3.5 SD of the protein, either way, in both replicates (recomputed)
[1] = compound: C1=CC=C(C=C1)[C@H](COC2=CC3=C(C=C2)NC(=O)N3)NC(=O)C4=CC=CN(C4=O)CC5=CC(=C(C=C5)F)F
In short: (§1)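 Log-two fold change in thermal stability relative to solvent controls is reported from duplicates. For each sample, crude K562 extract from dounce-homogenised pellets in PBS pH 7.4 with 1 mM MgCl2, at 1 mg/mL protein, was treated with 10 μM compound for 30 min. Aliquots heated for 3 min across 48°C-58°C were pooled, brought to 0.5% NP-40 at 4°C and cleared at 21,000xg for 90 min. The supernatant was quantified by TMTpro 16plex LC-MS/MS with channel sums equalised.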

By UniProt entry, the sequences of proteins in these tests, tags left out. Where a name states a change or a piece, a line headed by the entry shows the natural chain unless it says otherwise.
UniProt O75781: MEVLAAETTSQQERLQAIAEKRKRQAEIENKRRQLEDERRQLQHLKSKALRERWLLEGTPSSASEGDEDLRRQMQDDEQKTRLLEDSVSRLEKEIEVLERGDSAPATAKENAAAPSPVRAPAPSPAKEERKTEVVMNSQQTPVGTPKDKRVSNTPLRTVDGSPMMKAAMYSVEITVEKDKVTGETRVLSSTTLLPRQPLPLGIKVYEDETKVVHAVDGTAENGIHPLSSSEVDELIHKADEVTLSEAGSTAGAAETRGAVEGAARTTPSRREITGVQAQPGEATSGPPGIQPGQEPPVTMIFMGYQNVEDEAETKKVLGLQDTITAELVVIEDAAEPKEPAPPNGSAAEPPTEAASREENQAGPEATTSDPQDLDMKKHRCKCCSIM
UniProt P37198: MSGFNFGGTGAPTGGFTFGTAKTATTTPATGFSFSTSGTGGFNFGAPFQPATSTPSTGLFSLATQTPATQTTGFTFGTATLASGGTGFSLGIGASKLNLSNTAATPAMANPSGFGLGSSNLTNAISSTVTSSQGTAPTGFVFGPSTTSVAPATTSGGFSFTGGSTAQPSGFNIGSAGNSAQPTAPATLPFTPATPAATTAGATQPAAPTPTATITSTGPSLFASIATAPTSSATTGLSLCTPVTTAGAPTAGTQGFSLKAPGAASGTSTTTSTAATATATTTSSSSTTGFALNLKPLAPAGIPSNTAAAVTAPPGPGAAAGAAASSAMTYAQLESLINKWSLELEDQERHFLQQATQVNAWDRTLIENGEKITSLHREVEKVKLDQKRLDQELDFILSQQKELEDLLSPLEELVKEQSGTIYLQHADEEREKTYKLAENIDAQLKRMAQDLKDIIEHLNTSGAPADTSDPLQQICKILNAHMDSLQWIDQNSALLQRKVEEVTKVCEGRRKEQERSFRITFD
UniProt Q92882: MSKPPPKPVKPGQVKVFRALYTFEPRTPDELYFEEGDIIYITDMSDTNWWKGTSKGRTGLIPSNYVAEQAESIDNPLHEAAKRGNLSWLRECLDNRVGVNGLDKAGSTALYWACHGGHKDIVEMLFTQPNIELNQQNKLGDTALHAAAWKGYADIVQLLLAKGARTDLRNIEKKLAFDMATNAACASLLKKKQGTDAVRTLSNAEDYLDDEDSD
UniProt Q6PK18: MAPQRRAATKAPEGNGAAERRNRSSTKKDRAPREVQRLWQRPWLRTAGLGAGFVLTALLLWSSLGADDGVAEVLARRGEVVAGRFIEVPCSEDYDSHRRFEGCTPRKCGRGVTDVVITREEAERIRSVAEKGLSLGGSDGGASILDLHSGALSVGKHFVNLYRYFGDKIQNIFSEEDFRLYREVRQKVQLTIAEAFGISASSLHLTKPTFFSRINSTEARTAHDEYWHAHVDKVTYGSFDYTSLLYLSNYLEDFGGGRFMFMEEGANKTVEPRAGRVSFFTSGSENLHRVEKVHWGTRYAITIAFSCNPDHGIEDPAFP
UniProt Q969R2: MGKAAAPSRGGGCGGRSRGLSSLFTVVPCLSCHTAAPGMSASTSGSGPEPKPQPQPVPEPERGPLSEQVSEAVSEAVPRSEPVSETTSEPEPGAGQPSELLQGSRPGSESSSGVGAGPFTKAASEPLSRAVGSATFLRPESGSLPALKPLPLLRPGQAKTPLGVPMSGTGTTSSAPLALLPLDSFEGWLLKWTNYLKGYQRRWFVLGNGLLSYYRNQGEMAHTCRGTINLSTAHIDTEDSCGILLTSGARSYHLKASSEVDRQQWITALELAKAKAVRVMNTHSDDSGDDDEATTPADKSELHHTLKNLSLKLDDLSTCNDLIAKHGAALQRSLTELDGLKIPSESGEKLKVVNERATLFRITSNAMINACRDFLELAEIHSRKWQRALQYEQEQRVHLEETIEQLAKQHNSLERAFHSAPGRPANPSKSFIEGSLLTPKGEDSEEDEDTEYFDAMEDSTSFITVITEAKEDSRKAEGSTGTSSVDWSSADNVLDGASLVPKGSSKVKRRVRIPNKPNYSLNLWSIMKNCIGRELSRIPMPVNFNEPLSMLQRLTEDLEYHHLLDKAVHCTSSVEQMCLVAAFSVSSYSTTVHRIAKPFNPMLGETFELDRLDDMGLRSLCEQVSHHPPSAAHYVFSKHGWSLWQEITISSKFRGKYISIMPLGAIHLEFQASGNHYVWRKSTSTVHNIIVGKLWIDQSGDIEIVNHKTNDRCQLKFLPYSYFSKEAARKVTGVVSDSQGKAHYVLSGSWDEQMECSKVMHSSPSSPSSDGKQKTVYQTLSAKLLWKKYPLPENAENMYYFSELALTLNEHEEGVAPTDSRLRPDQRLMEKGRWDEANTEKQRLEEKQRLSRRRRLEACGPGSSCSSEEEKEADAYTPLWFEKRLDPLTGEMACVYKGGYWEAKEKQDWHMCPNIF
UniProt Q9NTK5, whole entry, looked up: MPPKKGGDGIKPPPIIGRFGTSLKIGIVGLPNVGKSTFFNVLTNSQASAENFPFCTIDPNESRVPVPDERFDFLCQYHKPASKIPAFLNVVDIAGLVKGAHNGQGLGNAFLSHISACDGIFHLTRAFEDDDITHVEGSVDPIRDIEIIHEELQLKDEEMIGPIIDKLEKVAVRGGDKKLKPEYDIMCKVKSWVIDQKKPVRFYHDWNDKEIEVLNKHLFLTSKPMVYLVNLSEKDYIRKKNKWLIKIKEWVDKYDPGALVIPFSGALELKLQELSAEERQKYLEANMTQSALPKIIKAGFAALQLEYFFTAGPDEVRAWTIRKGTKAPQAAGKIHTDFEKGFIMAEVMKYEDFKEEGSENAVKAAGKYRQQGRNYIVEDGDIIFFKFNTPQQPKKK
UniProt Q9NP74: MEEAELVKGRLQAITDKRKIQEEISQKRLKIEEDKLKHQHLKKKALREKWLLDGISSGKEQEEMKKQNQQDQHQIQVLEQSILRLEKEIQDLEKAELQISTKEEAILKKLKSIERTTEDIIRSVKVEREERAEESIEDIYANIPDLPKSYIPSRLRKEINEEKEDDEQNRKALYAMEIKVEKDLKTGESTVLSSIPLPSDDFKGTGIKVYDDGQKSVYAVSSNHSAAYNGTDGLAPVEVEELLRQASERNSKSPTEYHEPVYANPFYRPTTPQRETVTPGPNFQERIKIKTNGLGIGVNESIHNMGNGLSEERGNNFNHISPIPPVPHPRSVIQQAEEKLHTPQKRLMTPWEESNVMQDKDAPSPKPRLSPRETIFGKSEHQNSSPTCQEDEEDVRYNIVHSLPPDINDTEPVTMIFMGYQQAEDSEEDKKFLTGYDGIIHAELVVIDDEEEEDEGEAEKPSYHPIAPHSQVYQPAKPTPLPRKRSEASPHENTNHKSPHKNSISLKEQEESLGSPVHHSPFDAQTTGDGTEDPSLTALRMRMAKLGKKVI
UniProt Q9NPF4: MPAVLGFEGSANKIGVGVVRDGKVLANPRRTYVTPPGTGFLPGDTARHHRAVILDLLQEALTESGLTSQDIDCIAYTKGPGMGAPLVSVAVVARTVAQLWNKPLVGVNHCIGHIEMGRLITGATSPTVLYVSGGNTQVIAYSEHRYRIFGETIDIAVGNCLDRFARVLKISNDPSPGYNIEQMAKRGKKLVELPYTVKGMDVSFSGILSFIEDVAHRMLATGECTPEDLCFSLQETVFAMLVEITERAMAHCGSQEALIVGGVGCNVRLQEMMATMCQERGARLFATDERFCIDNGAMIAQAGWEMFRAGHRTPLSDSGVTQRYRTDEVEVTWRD
UniProt Q9H6K4: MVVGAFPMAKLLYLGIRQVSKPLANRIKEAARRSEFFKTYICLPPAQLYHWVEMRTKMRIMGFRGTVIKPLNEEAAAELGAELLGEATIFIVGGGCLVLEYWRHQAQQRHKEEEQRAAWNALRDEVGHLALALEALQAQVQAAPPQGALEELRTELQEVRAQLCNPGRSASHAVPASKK
UniProt Q13177, whole entry, looked up: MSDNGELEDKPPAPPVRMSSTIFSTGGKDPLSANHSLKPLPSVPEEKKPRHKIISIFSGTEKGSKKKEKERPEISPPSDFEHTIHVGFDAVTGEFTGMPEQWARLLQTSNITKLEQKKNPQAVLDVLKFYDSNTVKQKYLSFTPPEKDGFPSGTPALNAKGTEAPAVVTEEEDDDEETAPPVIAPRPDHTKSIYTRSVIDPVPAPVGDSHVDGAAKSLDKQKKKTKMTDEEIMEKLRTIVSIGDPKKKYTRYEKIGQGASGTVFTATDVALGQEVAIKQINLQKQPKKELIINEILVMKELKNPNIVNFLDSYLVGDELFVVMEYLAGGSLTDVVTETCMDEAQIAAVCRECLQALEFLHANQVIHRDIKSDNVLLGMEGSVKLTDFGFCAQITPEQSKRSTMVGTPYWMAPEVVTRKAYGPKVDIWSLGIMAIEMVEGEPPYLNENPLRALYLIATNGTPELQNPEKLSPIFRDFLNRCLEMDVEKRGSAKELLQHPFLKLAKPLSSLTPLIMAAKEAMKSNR
UniProt Q8IVL6: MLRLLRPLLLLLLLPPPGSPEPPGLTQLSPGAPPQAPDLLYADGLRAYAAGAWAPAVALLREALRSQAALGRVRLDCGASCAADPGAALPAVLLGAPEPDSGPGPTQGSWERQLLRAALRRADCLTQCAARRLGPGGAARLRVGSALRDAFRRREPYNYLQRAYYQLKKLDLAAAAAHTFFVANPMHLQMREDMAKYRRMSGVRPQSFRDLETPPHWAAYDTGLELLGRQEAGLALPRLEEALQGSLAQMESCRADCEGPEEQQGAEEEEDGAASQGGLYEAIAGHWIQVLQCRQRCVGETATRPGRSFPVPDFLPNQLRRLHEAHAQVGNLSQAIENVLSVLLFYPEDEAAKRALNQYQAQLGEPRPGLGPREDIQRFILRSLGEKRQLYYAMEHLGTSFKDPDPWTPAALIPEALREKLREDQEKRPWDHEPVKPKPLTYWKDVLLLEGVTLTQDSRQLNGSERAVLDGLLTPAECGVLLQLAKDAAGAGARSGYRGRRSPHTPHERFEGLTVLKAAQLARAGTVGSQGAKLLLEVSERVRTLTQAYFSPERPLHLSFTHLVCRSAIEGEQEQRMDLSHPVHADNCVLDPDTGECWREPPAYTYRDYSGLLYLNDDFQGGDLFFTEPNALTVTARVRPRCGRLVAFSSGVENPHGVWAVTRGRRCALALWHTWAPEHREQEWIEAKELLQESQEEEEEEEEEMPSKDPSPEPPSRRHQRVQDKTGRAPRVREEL
UniProt Q02218: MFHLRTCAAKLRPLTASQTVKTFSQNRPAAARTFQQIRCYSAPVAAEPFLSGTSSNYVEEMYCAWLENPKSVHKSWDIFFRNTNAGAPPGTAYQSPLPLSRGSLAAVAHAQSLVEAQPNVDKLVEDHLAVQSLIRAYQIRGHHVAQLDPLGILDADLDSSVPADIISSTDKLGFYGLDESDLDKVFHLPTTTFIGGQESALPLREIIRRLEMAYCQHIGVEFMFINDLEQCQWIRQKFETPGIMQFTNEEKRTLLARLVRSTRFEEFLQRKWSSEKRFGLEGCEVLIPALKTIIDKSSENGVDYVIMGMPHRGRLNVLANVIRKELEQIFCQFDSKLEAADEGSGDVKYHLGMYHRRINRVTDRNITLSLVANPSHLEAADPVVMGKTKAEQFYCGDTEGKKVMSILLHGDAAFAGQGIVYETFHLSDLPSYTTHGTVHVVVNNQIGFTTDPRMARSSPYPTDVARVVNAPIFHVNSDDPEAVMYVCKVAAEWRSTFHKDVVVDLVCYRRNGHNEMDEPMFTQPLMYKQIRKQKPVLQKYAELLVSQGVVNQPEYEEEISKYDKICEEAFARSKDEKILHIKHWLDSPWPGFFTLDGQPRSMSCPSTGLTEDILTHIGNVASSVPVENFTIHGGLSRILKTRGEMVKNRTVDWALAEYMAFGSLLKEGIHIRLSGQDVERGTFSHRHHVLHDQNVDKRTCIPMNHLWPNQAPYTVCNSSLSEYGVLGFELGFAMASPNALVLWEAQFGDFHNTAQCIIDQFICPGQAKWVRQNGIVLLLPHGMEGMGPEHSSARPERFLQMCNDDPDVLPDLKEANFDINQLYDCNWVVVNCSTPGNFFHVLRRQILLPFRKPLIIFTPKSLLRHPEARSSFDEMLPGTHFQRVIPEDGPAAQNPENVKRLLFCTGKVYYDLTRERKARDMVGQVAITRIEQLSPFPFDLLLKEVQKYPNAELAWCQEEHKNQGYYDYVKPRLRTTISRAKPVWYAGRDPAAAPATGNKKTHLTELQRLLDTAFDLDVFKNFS
UniProt Q8N138: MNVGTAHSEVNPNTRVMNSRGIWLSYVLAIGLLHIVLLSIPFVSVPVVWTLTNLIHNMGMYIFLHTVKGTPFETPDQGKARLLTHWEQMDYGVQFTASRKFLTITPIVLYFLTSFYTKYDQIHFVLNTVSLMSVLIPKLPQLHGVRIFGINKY
UniProt Q86UD1: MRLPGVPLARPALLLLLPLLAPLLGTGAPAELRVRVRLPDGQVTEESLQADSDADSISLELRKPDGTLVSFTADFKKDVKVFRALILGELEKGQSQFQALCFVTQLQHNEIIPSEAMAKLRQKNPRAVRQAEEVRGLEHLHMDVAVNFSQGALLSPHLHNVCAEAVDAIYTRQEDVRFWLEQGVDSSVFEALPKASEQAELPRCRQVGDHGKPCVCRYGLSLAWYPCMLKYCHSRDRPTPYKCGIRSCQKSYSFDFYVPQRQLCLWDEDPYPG

[2] = compound: CC1=C(SC2=C1C(=N[C@H](C3=NN=C(N32)C)CC(=O)N)C4=CC=C(C=C4)Cl)C
In short: as §1

[3] = compound: CC1=C2C(=CC=C1)N=C(N(C2=O)C3=CC=CC=C3C)CN4C=NC5=C(N=CN=C54)N
In short: as §1

[4] = compound: Cc1sc2c(c1C)C(c1ccc(Cl)cc1)=N[C@@H](CC(=O)OC(C)(C)C)c1nnc(C)n1-2
In short: as §1

[5] = compound: c1ccc([C@@H]2C[C@H]2NC2CCNCC2)cc1
In short: as §1

Measured: log2 fold change

P4HA1 (UniProt P13674)
inactive: [1] 0.001 | [2] 0.01 | [3] 0.002 | [4] 0.018 | [5] 0.015

OPA1 isoform 2 (UniProt O60313)
inactive: [1] -0.048 | [2] 0.021 | [3] 0.038 | [4] 0.005 | [5] 0.084

PALM (UniProt O75781)
inactive: [1] -0.012 | [2] 0.057 | [3] 0.04 | [4] 0 | [5] -0.036

OBSL1 (UniProt O75147)
inactive: [1] -0.042 | [2] 0.058 | [3] 0.03 | [4] 0.055 | [5] -0.006

OGT (UniProt O15294)
inactive: [1] 0.029 | [2] 0.012 | [3] 0.016 | [4] 0.067 | [5] 0.039

OVCA2 (UniProt Q8WZ82)
inactive: [1] 0.006 | [2] 0.007 | [3] 0.096 | [4] -0.001 | [5] 0.004

NUP50 (UniProt Q9UKX7)
inactive: [1] 0.034 | [2] -0.019 | [3] 0.022 | [4] -0.043 | [5] -0.064

OXSM (UniProt Q9NWU1)
inactive: [1] 0.061 | [2] 0.031 | [3] -0.019 | [4] -0.019 | [5] -0.016

NUP62 (UniProt P37198)
inactive: [1] -0.103 | [2] -0.047 | [3] -0.015 | [4] -0.003 | [5] -0.017

NVL (UniProt O15381)
inactive: [1] -0.063 | [2] -0.071 | [3] 0.143 | [4] 0.098 | [5] 0.07

P2RX4 isoform 2 (UniProt Q99571)
inactive: [1] 0.057 | [2] 0.079 | [3] 0.044 | [4] 0.036 | [5] -0.069

PA2G4 (UniProt Q9UQ80)
inactive: [1] -0.004 | [2] 0.006 | [3] -0.007 | [4] 0.027 | [5] 0.049

OCIAD1 (UniProt Q9NX40)
inactive: [1] 0.012 | [2] -0.013 | [3] 0.005 | [4] 0.023 | [5] 0.021

PAIP2 (UniProt Q9BPZ3)
inactive: [1] -0.009 | [2] 0.042 | [3] 0.03 | [4] 0.021 | [5] 0.036

NUP43 (UniProt Q8NFH3)
inactive: [1] 0 | [2] 0.061 | [3] -0.02 | [4] -0.011 | [5] -0.02

OSTF1 (UniProt Q92882)
inactive: [1] 0.014 | [2] 0.001 | [3] 0.014 | [4] -0.017 | [5] -0.001

OGFOD3 (UniProt Q6PK18)
inactive: [1] 0.088 | [2] 0.058 | [3] 0.054 | [4] -0.013 | [5] -0.024

PAN2 isoform 2 (UniProt Q504Q3)
inactive: [1] -0.108 | [2] 0.086 | [3] -0.004 | [4] -0.044 | [5] 0.007

NUP42 (UniProt O15504)
inactive: [1] 0.035 | [2] -0.014 | [3] 0.101 | [4] 0.044 | [5] 0.116

OSBP2 (UniProt Q969R2)
inactive: [1] 0.021 | [2] 0.046 | [3] 0.019 | [4] -0.095 | [5] -0.439

PAFAH1B2 (UniProt P68402)
inactive: [1] 0.055 | [2] -0.146 | [3] 0 | [4] -0.071 | [5] -0.09

OLA1 (UniProt Q9NTK5)
inactive: [1] -0.001 | [2] 0.04 | [3] 0 | [4] 0.011 | [5] 0.022

ORC3 isoform 2 (UniProt Q9UBD5)
inactive: [1] 0.005 | [2] -0.031 | [3] 0.014 | [4] 0.021 | [5] 0.047

PALMD (UniProt Q9NP74)
inactive: [1] 0.13 | [2] -0.053 | [3] -0.025 | [4] -0.008 | [5] -0.041

OSGEP (UniProt Q9NPF4)
inactive: [1] -0.007 | [2] 0.031 | [3] 0.036 | [4] 0.063 | [5] 0.011

ORMDL1 (UniProt Q9P0S3)
inactive: [1] -0.238 | [2] -0.171 | [3] -0.022 | [4] -0.01 | [5] 0.083

NUTF2 (UniProt P61970)
inactive: [1] -0.085 | [2] -0.031 | [3] -0.009 | [4] -0.011 | [5] 0.009

PAFAH1B1 (UniProt P43034)
inactive: [1] -0.008 | [2] -0.02 | [3] -0.008 | [4] 0.024 | [5] 0.03

OPA3 (UniProt Q9H6K4)
inactive: [1] -0.008 | [2] -0.043 | [3] -0.005 | [4] -0.022 | [5] -0.071

PAFAH2 (UniProt Q99487)
inactive: [1] -0.032 | [2] 0.087 | [3] -0.036 | [4] -0.068 | [5] -0.034

PAPOLA (UniProt P51003)
inactive: [1] -0.018 | [2] -0.016 | [3] 0.019 | [4] -0.008 | [5] 0.007

PABPC1 (UniProt P11940)
inactive: [1] -0.014 | [2] 0.002 | [3] 0.015 | [4] 0.082 | [5] 0.107

PANK1 (UniProt Q8TE04)
inactive: [1] -0.071 | [2] -0.056 | [3] 0.178 | [4] -0.077 | [5] 0.076

NUP88 (UniProt Q99567)
inactive: [1] -0.033 | [2] 0.006 | [3] -0.009 | [4] -0.005 | [5] -0.006

NUS1 (UniProt Q96E22)
inactive: [1] -0.029 | [2] 0.035 | [3] -0.028 | [4] 0.099 | [5] 0.012

PAICS (UniProt P22234)
inactive: [1] 0 | [2] -0.01 | [3] 0.004 | [4] 0.001 | [5] -0.044

PAK1IP1 (UniProt Q9NWT1)
inactive: [1] -0.011 | [2] 0.023 | [3] -0.068 | [4] -0.034 | [5] 0.026

PAF1 (UniProt Q8N7H5)
inactive: [1] 0.029 | [2] 0.008 | [3] -0.014 | [4] -0.004 | [5] -0.012

PAK2 (UniProt Q13177)
inactive: [1] -0.003 | [2] 0.014 | [3] 0.004 | [4] -0.015 | [5] 0.04

OPTN (UniProt Q96CV9)
inactive: [1] 0.041 | [2] 0.01 | [3] -0.031 | [4] -0.012 | [5] -0.042

OGFOD1 (UniProt Q8N543)
inactive: [1] 0.004 | [2] 0.02 | [3] -0.011 | [4] 0.044 | [5] 0

PAPOLG (UniProt Q9BWT3)
inactive: [3] 0.064 | [4] 0.074 | [5] -0.107

NXT2 isoform 3 (UniProt Q9NPJ8)
inactive: [5] 0.07

Quoted from the listing (4 entries):
OPTN (UniProt Q96CV9)
inactive: [1] 0.041 | [2] 0.01 | [3] -0.031 | [4] -0.012 | [5] -0.042

OGFOD1 (UniProt Q8N543)
inactive: [1] 0.004 | [2] 0.02 | [3] -0.011 | [4] 0.044 | [5] 0

PAPOLG (UniProt Q9BWT3)
inactive: [3] 0.064 | [4] 0.074 | [5] -0.107

NXT2 isoform 3 (UniProt Q9NPJ8)
inactive: [5] 0.07

(cont.)

P3H3 (UniProt Q8IVL6)
inactive: [3] -0.053 | [4] -0.122

OXR1 isoform 7 (UniProt Q8N573)
inactive: [5] 0.033

PACSIN3 (UniProt Q9UKS6)
inactive: [1] 0.067 | [2] -0.074 | [3] 0.031 | [4] -0.036 | [5] 0.09

OGDH (UniProt Q02218)
inactive: [1] -0.008 | [2] 0.003 | [3] -0.031 | [4] 0.056 | [5] -0.003

OXR1 isoform 2 (UniProt Q8N573)
inactive: [5] 0.021

OAT (UniProt P04181)
inactive: [1] 0.029 | [2] 0.031 | [3] 0.038 | [4] 0.034 | [5] -0.018

ORAI1 (UniProt Q96D31)
inactive: [1] -0.088 | [2] 0.08 | [5] -0.198

OSBPL1A (UniProt Q9BXW6)
inactive: [1] -0.089 | [2] 0.007 | [4] -0.144 | [5] -0.084

ORMDL3 (UniProt Q8N138)
inactive: [4] 0.092

NXF2 (UniProt Q9GZY0)
inactive: [4] 0.099 | [5] 0.021

PABPN1 (UniProt Q86U42)
inactive: [1] 0.04 | [2] 0.085 | [4] 0.083 | [5] -0.024

P4HA1 isoform 2 (UniProt P13674)
inactive: [1] 0.141 | [2] 0.04 | [3] -0.09 | [5] -0.008

PACS2 isoform 2 (UniProt Q86VP3)
inactive: [5] -0.172

OAF (UniProt Q86UD1)
inactive: [4] -0.146

NUP214 isoform 4 (UniProt P35658)
inactive: [1] 0.022 | [2] 0.054 | [5] 0.087

NUP35 (UniProt Q8NFH5)
inactive: [1] -0.015 | [2] -0.031 | [3] -0.127 | [5] 0.054
